Experimental data reported in paper PMC10760242.

Chains of the proteins cited; added tags and fusions are not shown. Lines headed by an entry give the natural chain unless they say otherwise; changes in a name come on top.
UniProt P13647: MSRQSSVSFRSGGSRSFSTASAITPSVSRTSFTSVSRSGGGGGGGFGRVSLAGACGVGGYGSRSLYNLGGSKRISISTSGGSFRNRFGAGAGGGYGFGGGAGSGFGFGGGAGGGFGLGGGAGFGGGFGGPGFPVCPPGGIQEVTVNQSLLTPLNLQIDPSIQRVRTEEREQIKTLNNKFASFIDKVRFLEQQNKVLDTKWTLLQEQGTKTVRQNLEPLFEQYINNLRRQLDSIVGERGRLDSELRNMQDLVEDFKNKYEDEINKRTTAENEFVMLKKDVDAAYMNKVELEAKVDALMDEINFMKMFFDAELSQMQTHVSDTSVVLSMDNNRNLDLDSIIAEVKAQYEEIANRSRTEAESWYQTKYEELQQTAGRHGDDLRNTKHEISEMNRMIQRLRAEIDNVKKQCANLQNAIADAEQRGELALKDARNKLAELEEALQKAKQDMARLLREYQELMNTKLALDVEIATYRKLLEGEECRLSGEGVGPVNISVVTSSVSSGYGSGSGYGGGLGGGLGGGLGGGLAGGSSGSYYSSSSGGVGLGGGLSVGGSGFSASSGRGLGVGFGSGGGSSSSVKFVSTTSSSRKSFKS
UniProt P02538: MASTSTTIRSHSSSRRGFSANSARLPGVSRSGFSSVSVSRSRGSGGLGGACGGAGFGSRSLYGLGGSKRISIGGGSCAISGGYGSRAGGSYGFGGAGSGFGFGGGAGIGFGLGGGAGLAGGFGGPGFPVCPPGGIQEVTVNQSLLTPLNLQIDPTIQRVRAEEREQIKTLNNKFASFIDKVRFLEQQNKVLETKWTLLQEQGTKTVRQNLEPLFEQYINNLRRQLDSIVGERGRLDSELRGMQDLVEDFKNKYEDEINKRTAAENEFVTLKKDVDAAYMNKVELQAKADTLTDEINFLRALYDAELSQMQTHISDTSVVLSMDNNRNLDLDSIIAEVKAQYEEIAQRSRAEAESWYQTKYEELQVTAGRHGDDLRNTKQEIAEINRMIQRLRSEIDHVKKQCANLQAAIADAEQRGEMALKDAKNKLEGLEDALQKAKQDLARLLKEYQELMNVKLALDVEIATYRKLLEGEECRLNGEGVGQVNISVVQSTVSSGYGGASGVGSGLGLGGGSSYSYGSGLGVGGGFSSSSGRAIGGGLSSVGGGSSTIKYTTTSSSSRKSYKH

B1: K18 (protein, UniProt P05783 1-430)
chain: MSFTTRSTFSTNYRSLGSVQAPSYGARPVSSAASVYAGAGGSGSRISVSRSTSFRGGMGSGGLATGIAGGLAGMGGIQNEKETMQSLNDRLASYLDRVRSLETENRRLESKIREHLEKKGPQVRDWSHYFKIIEDLRAQIFANTVDNARIVLQIDNARLAADDFRVKYETELAMRQSVENDIHGLRKVIDDTNITRLQLETEIEALKEELLFMKKNHEEEVKGLQAQIASSGLTVEVDAPKSQDLAKIMADIRAQYDELARKNREELDKYWSQQIEESTTVVTTQSAEVGAAETTLTELRRTVQSLEIDLDSMRNLKASLENSLREVEARYALQMEQLNGILLHLESELAQTRAEGQRQAQEYEALLNIKVKLEAEIATYRRLLEDGEDFNLGDALDSSNSMQTIQKTTTRRIVDGKVVSETNDTKVLRH
B2: K9 (protein, UniProt P35527 1-623)
chain: MSCRQFSSSYLSRSGGGGGGGLGSGGSIRSSYSRFSSSGGGGGGGRFSSSSGYGGGSSRVCGRGGGGSFGYSYGGGSGGGFSASSLGGGFGGGSRGFGGASGGGYSSSGGFGGGFGGGSGGGFGGGYGSGFGGFGGFGGGAGGGDGGILTANEKSTMQELNSRLASYLDKVQALEEANNDLENKIQDWYDKKGPAAIQKNYSPYYNTIDDLKDQIVDLTVGNNKTLLDIDNTRMTLDDFRIKFEMEQNLRQGVDADINGLRQVLDNLTMEKSDLEMQYETLQEELMALKKNHKEEMSQLTGQNSGDVNVEINVAPGKDLTKTLNDMRQEYEQLIAKNRKDIENQYETQITQIEHEVSSSGQEVQSSAKEVTQLRHGVQELEIELQSQLSKKAALEKSLEDTKNRYCGQLQMIQEQISNLEAQITDVRQEIECQNQEYSLLLSIKMRLEKEIETYHNLLEGGQEDFESSGAGKIGLGGRGGSGGSYGRGSRGGSGGSYGGGGSGGGYGGGSGSRGGSGGSYGGGSGSGGGSGGGYGGGSGGGHSGGSGGGHSGGSGGNYGGGSGSGGGSGGGYGGGSGSRGGSGGSHGGGSGFGGESGGSYGGGEEASGSGGGYGGGSGKSSHS

The molecules below were run against T1, Tripartite Motif-containing protein 29 (TRIM29) (human (endogenous in UM-UC5, UM-UC9, UM-UC14)) (UniProt Q14134) (assay: affinity purification with mass spectrometry; IP of endogenous TRIM29 with TRIM29 antibody (B-2) on magnetic beads from UM-UC5 and UM-UC9 lysates, overnight at 4°C; lysis buffer 25 mM Tris-HCl pH 7.4, 150 mM NaCl, 1 mM EDTA, 5% glycerol; LC/MS of the beads; TRIM29-KO cells as negative control).
T1 sequence: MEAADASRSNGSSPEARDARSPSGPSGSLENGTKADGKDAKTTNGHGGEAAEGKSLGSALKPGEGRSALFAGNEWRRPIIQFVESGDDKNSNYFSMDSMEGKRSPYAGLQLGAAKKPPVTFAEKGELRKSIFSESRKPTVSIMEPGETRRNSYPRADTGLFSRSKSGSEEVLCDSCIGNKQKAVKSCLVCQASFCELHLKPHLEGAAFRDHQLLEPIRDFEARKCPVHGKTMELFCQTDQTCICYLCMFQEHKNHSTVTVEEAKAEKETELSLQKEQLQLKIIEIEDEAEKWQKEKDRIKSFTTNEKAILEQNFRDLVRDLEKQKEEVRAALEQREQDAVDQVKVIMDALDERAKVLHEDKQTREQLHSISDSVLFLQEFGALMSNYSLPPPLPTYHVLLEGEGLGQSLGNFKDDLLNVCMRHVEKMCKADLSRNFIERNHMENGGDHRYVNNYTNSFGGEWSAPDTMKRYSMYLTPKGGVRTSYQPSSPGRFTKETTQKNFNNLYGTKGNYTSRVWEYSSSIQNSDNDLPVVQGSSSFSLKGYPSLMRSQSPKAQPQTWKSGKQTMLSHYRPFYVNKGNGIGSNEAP

binding, binds:
K5 (from UniProt P13647 1-590)
K6A (from UniProt P02538 1-564)
B1
B2

Results are given in words; binding and its absence hold for the method and conditions named. In cells and extracts the contact can be indirect. These calls come from enrichment with a bait or labelling near it, and not all partners need be listed.
